Source: PMC4476799, “Englerin A Agonizes the TRPC4/C5 Cation Channels to Inhibit Tumor Cell Line Proliferation” (PLoS ONE, 2015)
This continues a long series; more values of the same kind are listed elsewhere.

Tested on: cancer cell lines from the cancer cell line encyclopedia (CCLE)
Experiment: Cell line profiling (CLiP) proliferation experiment
Assay type: cell-based
Parameters: ACTIVITY_AREA: scale not given here; AMAX: unit not given here
Method: Compound profiling experiment and data analysis was performed as previously described. Data was imported and plotted using the Tibco Spotfire DXP application. Lines were categorized as sensitive, intermediate and refractory as follows: Amax<-40 & Inflection Point <2 ~ Sensitive, Amax>-20 & Inflection Point >10 ~ Refractory, all else were called Intermediate. Cancer Cell line HG-U133 Plus 2 data was processed and normalized as described. […] Five sets of refractory cell lines were generated from the pool of refractory cell lines trying to match the lineage composition of the set of sensitive cell lines. The limma package was used as previously described to perform the statistical comparison.

[1] = cell line Loucy (haematopoietic_and_lymphoid_tissue, acute_lymphoblastic_T_cell_leukaemia)
[2] = cell line MC116 (haematopoietic_and_lymphoid_tissue, B_cell_lymphoma_unspecified)
[3] = cell line MCAS (ovary, mucinous_carcinoma)
[4] = cell line MDA-MB-231 (breast, NS)
[5] = cell line MDA-MB-453 (breast, NS)
[6] = cell line MEC-1 (haematopoietic_and_lymphoid_tissue, chronic_lymphocytic_leukaemia-small_lymphocytic_lymphoma)
[7] = cell line MFE-296 (endometrium)
[8] = cell line MHH-NB-11 (autonomic_ganglia)
[9] = cell line MIA PaCa-2 (pancreas)
[10] = cell line MJ (haematopoietic_and_lymphoid_tissue)
[11] = cell line MM1-S (haematopoietic_and_lymphoid_tissue)
[12] = cell line MOG-G-UVW (central_nervous_system)
[13] = cell line MOLM-13 (haematopoietic_and_lymphoid_tissue)
[14] = cell line MOLM-16 (haematopoietic_and_lymphoid_tissue)
[15] = cell line MOLP-8 (haematopoietic_and_lymphoid_tissue)
[16] = cell line MOLT-16 (haematopoietic_and_lymphoid_tissue)
[17] = cell line MOLT-16 (haematopoietic_and_lymphoid_tissue, acute_lymphoblastic_T_cell_leukaemia)
[18] = cell line MONO-MAC-1 (haematopoietic_and_lymphoid_tissue)
[19] = cell line MONO-MAC-6 (haematopoietic_and_lymphoid_tissue)
[20] = cell line MONO-MAC-6 (haematopoietic_and_lymphoid_tissue, acute_myeloid_leukaemia)

CC(C)[C@@]12C[C@@H](O)[C@@](C)(O1)[C@@H]1CC[C@@H](C)[C@H]1[C@@H]2OC(=O)/C=C/c1ccccc1 [Englerin B]
AMAX (cell line IGR-39): -36.52
RESPONSE (cell line IGR-39): INTERMEDIATE
ACTIVITY_AREA (cell line IGR-39, skin): 70.27
AMAX (cell line IGR-39, skin): -36.52
RESPONSE (cell line IGR-39, skin): INTERMEDIATE
ACTIVITY_AREA (cell line IGROV1, ovary): 38.35
AMAX (cell line IGROV1, ovary): -25.23
RESPONSE (cell line IGROV1, ovary): INTERMEDIATE
ACTIVITY_AREA (cell line IPC-298): 31.6
AMAX (cell line IPC-298): -31.36
RESPONSE (cell line IPC-298): INTERMEDIATE
ACTIVITY_AREA (cell line J82): 6.63
AMAX (cell line J82): -28.14
RESPONSE (cell line J82): INTERMEDIATE
ACTIVITY_AREA (cell line JHH-2): 49.18
AMAX (cell line JHH-2): -46.72
RESPONSE (cell line JHH-2): INTERMEDIATE
ACTIVITY_AREA (cell line JHOM-1): 17.33
AMAX (cell line JHOM-1): -51.79
RESPONSE (cell line JHOM-1): INTERMEDIATE
ACTIVITY_AREA (cell line JJN-3): 16.87
AMAX (cell line JJN-3): -1.17
RESPONSE (cell line JJN-3): REFRACTORY
ACTIVITY_AREA (cell line JURKAT): 72.2
AMAX (cell line JURKAT): -83.41
RESPONSE (cell line JURKAT): INTERMEDIATE
ACTIVITY_AREA (cell line JVM-3): 18.3
AMAX (cell line JVM-3): 3.55
RESPONSE (cell line JVM-3): REFRACTORY
ACTIVITY_AREA (cell line K-562): 49.17
AMAX (cell line K-562): -49.05
RESPONSE (cell line K-562): INTERMEDIATE
ACTIVITY_AREA (cell line KARPAS-299): 51.51
AMAX (cell line KARPAS-299): -86.39
RESPONSE (cell line KARPAS-299): INTERMEDIATE
ACTIVITY_AREA (cell line KARPAS-620): 32.66
AMAX (cell line KARPAS-620): -70.61
RESPONSE (cell line KARPAS-620): INTERMEDIATE
ACTIVITY_AREA (cell line KATO III): 50.08
AMAX (cell line KATO III): -60.06
RESPONSE (cell line KATO III): INTERMEDIATE
ACTIVITY_AREA (cell line KELLY): 53.88
AMAX (cell line KELLY): -99.41
RESPONSE (cell line KELLY): INTERMEDIATE
ACTIVITY_AREA (cell line KLE): 36.8
AMAX (cell line KLE): -42.78
RESPONSE (cell line KLE): INTERMEDIATE
ACTIVITY_AREA (cell line KMS-28BM): 29.69
AMAX (cell line KMS-28BM): -50.99
RESPONSE (cell line KMS-28BM): INTERMEDIATE
ACTIVITY_AREA (cell line KP-N-SI9s): 39.08
AMAX (cell line KP-N-SI9s): -59.99
RESPONSE (cell line KP-N-SI9s): INTERMEDIATE
ACTIVITY_AREA (cell line KYSE-270): 78.27
AMAX (cell line KYSE-270): -38.17
RESPONSE (cell line KYSE-270): INTERMEDIATE
ACTIVITY_AREA [1]: 40.46
AMAX [1]: -77.08
RESPONSE [1]: INTERMEDIATE
ACTIVITY_AREA [2]: 38.31
AMAX [2]: -98.12
RESPONSE [2]: INTERMEDIATE
ACTIVITY_AREA [3]: 25.17
AMAX [3]: -38.75
RESPONSE [3]: INTERMEDIATE
ACTIVITY_AREA [4]: 47.93
AMAX [4]: -44.39
RESPONSE [4]: INTERMEDIATE
ACTIVITY_AREA [5]: 54.06
AMAX [5]: -63.93
RESPONSE [5]: INTERMEDIATE
ACTIVITY_AREA [6]: 41.33
AMAX [6]: -58.42
RESPONSE [6]: INTERMEDIATE
ACTIVITY_AREA (cell line MEL-HO): 73.24
AMAX (cell line MEL-HO): -36.18
RESPONSE (cell line MEL-HO): INTERMEDIATE
ACTIVITY_AREA (cell line MEL-HO (skin)): 73.24
AMAX (cell line MEL-HO (skin)): -36.18
RESPONSE (cell line MEL-HO (skin)): INTERMEDIATE
ACTIVITY_AREA (cell line MEL-JUSO (skin)): 85.15
AMAX (cell line MEL-JUSO (skin)): -17.8
RESPONSE (cell line MEL-JUSO (skin)): REFRACTORY
ACTIVITY_AREA [7]: 30.54
AMAX [7]: -63.15
RESPONSE [7]: INTERMEDIATE
ACTIVITY_AREA (cell line MG-63): 49.07
AMAX (cell line MG-63): -25.48
RESPONSE (cell line MG-63): INTERMEDIATE
ACTIVITY_AREA (cell line MG-63 (bone)): 49.07
AMAX (cell line MG-63 (bone)): -25.48
RESPONSE (cell line MG-63 (bone)): INTERMEDIATE
ACTIVITY_AREA (cell line MHH-NB-11): 20.68
AMAX (cell line MHH-NB-11): -56.69
RESPONSE (cell line MHH-NB-11): INTERMEDIATE
ACTIVITY_AREA [8]: 20.68
AMAX [8]: -56.69
RESPONSE [8]: INTERMEDIATE
ACTIVITY_AREA [9]: 21.84
AMAX [9]: -45.2
RESPONSE [9]: INTERMEDIATE
ACTIVITY_AREA (cell line MJ): 86.63
AMAX (cell line MJ): -80.66
RESPONSE (cell line MJ): INTERMEDIATE
ACTIVITY_AREA [10]: 86.63
AMAX [10]: -80.66
RESPONSE [10]: INTERMEDIATE
ACTIVITY_AREA (cell line MKN1): 40.95
AMAX (cell line MKN1): 0.87
RESPONSE (cell line MKN1): REFRACTORY
ACTIVITY_AREA (cell line MKN1 (stomach)): 40.95
AMAX (cell line MKN1 (stomach)): 0.87
RESPONSE (cell line MKN1 (stomach)): REFRACTORY
ACTIVITY_AREA (cell line MKN7 (stomach)): 17.73
AMAX (cell line MKN7 (stomach)): -33.53
RESPONSE (cell line MKN7 (stomach)): INTERMEDIATE
ACTIVITY_AREA (cell line MKN74): 17.11
AMAX (cell line MKN74): -54.6
RESPONSE (cell line MKN74): INTERMEDIATE
ACTIVITY_AREA (cell line MKN74 (stomach)): 17.11
AMAX (cell line MKN74 (stomach)): -54.6
RESPONSE (cell line MKN74 (stomach)): INTERMEDIATE
ACTIVITY_AREA (cell line MKN-45 (stomach)): 62.13
AMAX (cell line MKN-45 (stomach)): -32.27
RESPONSE (cell line MKN-45 (stomach)): INTERMEDIATE
ACTIVITY_AREA (cell line MM1-S): 20.99
AMAX (cell line MM1-S): -39.73
RESPONSE (cell line MM1-S): INTERMEDIATE
ACTIVITY_AREA [11]: 20.99
AMAX [11]: -39.73
RESPONSE [11]: INTERMEDIATE
ACTIVITY_AREA (cell line MOG-G-UVW): 10.19
AMAX (cell line MOG-G-UVW): -24.06
RESPONSE (cell line MOG-G-UVW): INTERMEDIATE
ACTIVITY_AREA [12]: 10.19
AMAX [12]: -24.06
RESPONSE [12]: INTERMEDIATE
ACTIVITY_AREA [13]: 49.89
AMAX [13]: -90.98
RESPONSE [13]: INTERMEDIATE
ACTIVITY_AREA (cell line MOLM-16): 75.11
AMAX (cell line MOLM-16): -81.93
RESPONSE (cell line MOLM-16): INTERMEDIATE
ACTIVITY_AREA [14]: 75.11
AMAX [14]: -81.93
RESPONSE [14]: INTERMEDIATE
ACTIVITY_AREA (cell line MOLP-8): 20.53
AMAX (cell line MOLP-8): -60.07
RESPONSE (cell line MOLP-8): INTERMEDIATE
ACTIVITY_AREA [15]: 20.53
AMAX [15]: -60.07
RESPONSE [15]: INTERMEDIATE
ACTIVITY_AREA [16]: 14.74
AMAX [16]: -74.95
RESPONSE [16]: INTERMEDIATE
ACTIVITY_AREA [17]: 14.74
AMAX [17]: -74.95
RESPONSE [17]: INTERMEDIATE
ACTIVITY_AREA (cell line MONO-MAC-1): 27.45
AMAX (cell line MONO-MAC-1): -73.86
RESPONSE (cell line MONO-MAC-1): INTERMEDIATE
ACTIVITY_AREA [18]: 27.45
AMAX [18]: -73.86
RESPONSE [18]: INTERMEDIATE
ACTIVITY_AREA [19]: 35.17
AMAX [19]: -68.18
RESPONSE [19]: INTERMEDIATE
ACTIVITY_AREA [20]: 35.17
AMAX [20]: -68.18
RESPONSE [20]: INTERMEDIATE
ACTIVITY_AREA (cell line MOR/CPR): 20.21
AMAX (cell line MOR/CPR): -50.6
